Measured values as given in article PMC6290091.
The exact form of at least one protein or probe is not confirmed.

Target: PdWND1B (UniProt B9GIS7)
Assay: EMSA
Details: 5 mM MgCl2, poly dI:dC, positive control; LightShift EMSA: 1X binding buffer, 2.5% glycerol, 5 mM MgCl2, 50 ng/ul poly dI:dC, 0.05% NP-40, ~100 fmol DNA, 200-300 ng protein, 20 min, room temperature; recombinant protein; protein details: GST (N-terminal, pGEX-6P-1); label: biotin 3' end; probe letters rebuilt from the primers and the genome

“ACCTCTCTCATTTTCCCCTGCAGTCCCTCTCCAAACCGTTTTACTGCTCAGACCTCAGACTCATTCATCAACCAACCCCTCTCGCTCTCTCTCTCTCTCTCTCTCTCTCTCTTTCCTATATTCTAAGCAATACCCACAACCATCATCACCATCATGATCGGCATGCCCACTCTGCCAAGCTCCTCTCTCTCTTTCTCATAATCTGCCATTCTATAAAGCCTTAACTGATCTACATCAAACCAGTTGGGAAGAAATATATATATAGATCACCTTTCTAGTGACAGGGA (double strand) [PdMYB002 promoter]”: binds.
